PubChem BioAssay AID1259405 – NCATS – 2018
This is a random part of about 50,000 reagents tested. Of all reagents, about 4,000 (8%) got an active call. 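Mouse siRNA library applied to hamster cells; one well for each siRNA.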 Entries without a mark were called inactive. The numbers tell different reagents against one gene apart.

Aim: 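Mouse-designed siRNAs used to find CHO productivity engineering targets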 (primary screen)
Cell system: Chinese hamster CHO-K1 ovary cells with stable secreted eGFP expression
Knock-down reagent: single siRNA against mouse genes, 0.8 pmol siRNA per well (2 µl of 400 nM stock)
Duration: 3 days
Measurement: 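Per-well intracellular GFP measured by laser scanning cytometry, plus viability from ATP luminescence, each relative to plate median of non-targeting control wells, in %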
Direction: GFP, % of control: higher = more GFP per well, higher productivity; viability (ATP), % of control: higher = more viable cells (more ATP)
Hit rule: 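a knock-down is called active if GFP reaches 120% or more of non-targeting control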

Depletion of Btf3l4 (basic transcription factor 3-like 4) #1 resulted in: GFP, % of control 86; viability (ATP), % of control 77.5.
Knock-down of Btf3l4 (basic transcription factor 3-like 4) #2 resulted in: GFP, % of control 55.5; viability (ATP), % of control 56.5.
Btf3l4 (basic transcription factor 3-like 4) #3 showed GFP, % of control 83.8; viability (ATP), % of control 97.8.
After knock-down of Zcrb1 (zinc finger CCHC-type and RNA binding motif 1) #1, the screen gave GFP, % of control 191 (active); viability (ATP), % of control 122.
Against Zcrb1 (zinc finger CCHC-type and RNA binding motif 1) #2, the entry reads GFP, % of control 88.1; viability (ATP), % of control 73.4.
After knock-down of Zcrb1 (zinc finger CCHC-type and RNA binding motif 1) #3 the results were GFP, % of control 70.9; viability (ATP), % of control 45.6.
After knock-down of Pcyt2 (phosphate cytidylyltransferase 2, ethanolamine) #1 the results were GFP, % of control 102; viability (ATP), % of control 95.
Pcyt2 (phosphate cytidylyltransferase 2, ethanolamine) #2 scored GFP, % of control 144 (active); viability (ATP), % of control 100.
With knock-down of Pcyt2 (phosphate cytidylyltransferase 2, ethanolamine) #3, the record shows GFP, % of control 88; viability (ATP), % of control 113.
Krt39 (keratin 39) #1 showed GFP, % of control 63.2; viability (ATP), % of control 96.
After knock-down of Krt39 (keratin 39) #2, the screen gave GFP, % of control 53.1; viability (ATP), % of control 54.2.
Hnrnpr (heterogeneous nuclear ribonucleoprotein R) #1 showed GFP, % of control 101; viability (ATP), % of control 98.9.
After knock-down of Hnrnpr (heterogeneous nuclear ribonucleoprotein R) #2, the screen gave GFP, % of control 71.9; viability (ATP), % of control 95.
Depletion of Hnrnpr (heterogeneous nuclear ribonucleoprotein R) #3 gave: GFP, % of control 66.7; viability (ATP), % of control 94.
Nlrp5 (NLR family, pyrin domain containing 5) #1 gave GFP, % of control 69.2; viability (ATP), % of control 62.3.
Nlrp5 (NLR family, pyrin domain containing 5) #2 gave GFP, % of control 17; viability (ATP), % of control 21.9.
After knock-down of Nlrp5 (NLR family, pyrin domain containing 5) #3 the results were GFP, % of control 67.2; viability (ATP), % of control 42.1.
With knock-down of F3 (coagulation factor III, tissue factor) #1, the record shows GFP, % of control 105; viability (ATP), % of control 108.
F3 (coagulation factor III, tissue factor) #2 showed GFP, % of control 87.9; viability (ATP), % of control 75.4.
Depletion of F3 (coagulation factor III, tissue factor) #3 came out at: GFP, % of control 42.2; viability (ATP), % of control 35.4.
Rbm39 (RNA binding motif protein 39) #1 scored GFP, % of control 80.7; viability (ATP), % of control 86.3.
Against Rbm39 (RNA binding motif protein 39) #2 the deposit lists GFP, % of control 66.1; viability (ATP), % of control 80.4.
With knock-down of Rbm39 (RNA binding motif protein 39) #3 the results were GFP, % of control 48.9; viability (ATP), % of control 57.8.
Knock-down of Adamts6 (ADAM metallopeptidase with thrombospondin type 1 motif 6) #1 resulted in: GFP, % of control 94.1; viability (ATP), % of control 69.2.
With knock-down of Adamts6 (ADAM metallopeptidase with thrombospondin type 1 motif 6) #2, the record shows GFP, % of control 69.9; viability (ATP), % of control 54.9.
Adamts6 (ADAM metallopeptidase with thrombospondin type 1 motif 6) #3 gave GFP, % of control 92.4; viability (ATP), % of control 59.1.
Vamp1 (vesicle-associated membrane protein 1) #1 showed GFP, % of control 61.1; viability (ATP), % of control 48.3.
Silencing of Vamp1 (vesicle-associated membrane protein 1) #2 gave: GFP, % of control 94.5; viability (ATP), % of control 85.2.
Knock-down of Vamp1 (vesicle-associated membrane protein 1) #3 gave: GFP, % of control 83.1; viability (ATP), % of control 69.6.
Against Hepacam2 (HEPACAM family member 2) #1, the values are GFP, % of control 122 (active); viability (ATP), % of control 80.8.
After knock-down of Hepacam2 (HEPACAM family member 2) #2, the screen gave GFP, % of control 76.1; viability (ATP), % of control 80.8.
Hepacam2 (HEPACAM family member 2) #3 scored GFP, % of control 69; viability (ATP), % of control 46.
Or7c19 (olfactory receptor family 7 subfamily C member 19) #1 gave GFP, % of control 69.6; viability (ATP), % of control 31.4.
Against Or7c19 (olfactory receptor family 7 subfamily C member 19) #2, the entry reads GFP, % of control 79.2; viability (ATP), % of control 81.
Or7c19 (olfactory receptor family 7 subfamily C member 19) #3 showed GFP, % of control 46; viability (ATP), % of control 111.
For Or5bw2 (olfactory receptor family 5 subfamily BW member 2) #1, the entry reads GFP, % of control 85.7; viability (ATP), % of control 64.1.
After knock-down of Or5bw2 (olfactory receptor family 5 subfamily BW member 2) #2, the screen gave GFP, % of control 85.1; viability (ATP), % of control 91.
Or5bw2 (olfactory receptor family 5 subfamily BW member 2) #3 scored GFP, % of control 118; viability (ATP), % of control 87.3.
Depletion of Daam2 (dishevelled associated activator of morphogenesis 2) #1 resulted in: GFP, % of control 132 (active); viability (ATP), % of control 60.8.
Knock-down of Daam2 (dishevelled associated activator of morphogenesis 2) #2 gave: GFP, % of control 92.5; viability (ATP), % of control 82.9.
Knock-down of Daam2 (dishevelled associated activator of morphogenesis 2) #3 resulted in: GFP, % of control 78.5; viability (ATP), % of control 72.6.
